For this assay, the target named is IGF-I receptor in homogenized adult rat brain tissue (cerebral cortex and cerebellum) (rat) (UniProt P24062). Put plainly: displacement of 125I-[Thr59]IGF-I from homogenised rat brain tissue. For orientation: Loss of bound radioactivity is the signal in a displacement assay; it reports binding, not function.

Sequences of proteins named here, by UniProt entry; tags and fusion partners are left off. Residues count along the entry.
UniProt P24062, residues 31-1370: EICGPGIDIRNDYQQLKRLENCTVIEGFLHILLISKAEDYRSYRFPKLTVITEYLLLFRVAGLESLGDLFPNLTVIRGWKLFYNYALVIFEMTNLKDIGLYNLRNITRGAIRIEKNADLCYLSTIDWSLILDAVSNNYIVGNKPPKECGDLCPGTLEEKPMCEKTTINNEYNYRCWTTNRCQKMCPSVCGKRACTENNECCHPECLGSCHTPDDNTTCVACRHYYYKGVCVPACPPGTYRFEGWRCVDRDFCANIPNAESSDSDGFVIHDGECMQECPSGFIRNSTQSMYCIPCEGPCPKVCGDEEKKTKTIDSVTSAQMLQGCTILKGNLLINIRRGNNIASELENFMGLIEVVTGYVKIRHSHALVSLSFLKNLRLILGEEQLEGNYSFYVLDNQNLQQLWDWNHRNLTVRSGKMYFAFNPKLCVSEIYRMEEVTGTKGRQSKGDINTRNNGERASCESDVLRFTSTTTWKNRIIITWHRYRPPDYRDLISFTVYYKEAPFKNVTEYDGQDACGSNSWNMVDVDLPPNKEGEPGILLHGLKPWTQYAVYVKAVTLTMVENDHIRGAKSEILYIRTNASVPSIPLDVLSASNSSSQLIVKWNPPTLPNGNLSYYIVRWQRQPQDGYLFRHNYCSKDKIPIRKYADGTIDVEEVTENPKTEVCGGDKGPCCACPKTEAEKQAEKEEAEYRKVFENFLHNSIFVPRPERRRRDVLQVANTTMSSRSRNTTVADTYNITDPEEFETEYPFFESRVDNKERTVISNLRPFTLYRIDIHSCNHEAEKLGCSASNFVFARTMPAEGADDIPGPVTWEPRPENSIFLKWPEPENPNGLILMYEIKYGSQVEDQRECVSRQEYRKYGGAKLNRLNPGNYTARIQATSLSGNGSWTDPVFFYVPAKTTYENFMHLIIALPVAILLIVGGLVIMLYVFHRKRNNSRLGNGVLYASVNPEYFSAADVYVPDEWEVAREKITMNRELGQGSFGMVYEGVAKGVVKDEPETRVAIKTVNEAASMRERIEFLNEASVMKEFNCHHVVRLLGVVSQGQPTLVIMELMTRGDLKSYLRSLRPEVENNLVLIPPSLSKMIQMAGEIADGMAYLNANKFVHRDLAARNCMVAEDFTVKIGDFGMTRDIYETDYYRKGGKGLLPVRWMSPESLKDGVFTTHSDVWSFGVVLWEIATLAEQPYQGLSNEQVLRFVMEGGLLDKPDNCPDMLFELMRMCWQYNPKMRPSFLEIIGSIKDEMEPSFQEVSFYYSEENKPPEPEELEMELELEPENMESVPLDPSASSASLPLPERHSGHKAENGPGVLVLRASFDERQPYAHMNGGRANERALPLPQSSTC

Results are given in words; binding and its absence hold for the method and conditions named. Some entries that bind do so weakly or less than the wild type.

As to YFNKPTGYGSSSRRAPQT [IGF-I(24-41)], the binding entry is on record as “binds”.
